One substance from publication PMC6008442 can be followed below.

The chains behind the UniProt entries cited, without tags or fusion partners. Residues count along the entry.
UniProt Q60751, residues 31-1373: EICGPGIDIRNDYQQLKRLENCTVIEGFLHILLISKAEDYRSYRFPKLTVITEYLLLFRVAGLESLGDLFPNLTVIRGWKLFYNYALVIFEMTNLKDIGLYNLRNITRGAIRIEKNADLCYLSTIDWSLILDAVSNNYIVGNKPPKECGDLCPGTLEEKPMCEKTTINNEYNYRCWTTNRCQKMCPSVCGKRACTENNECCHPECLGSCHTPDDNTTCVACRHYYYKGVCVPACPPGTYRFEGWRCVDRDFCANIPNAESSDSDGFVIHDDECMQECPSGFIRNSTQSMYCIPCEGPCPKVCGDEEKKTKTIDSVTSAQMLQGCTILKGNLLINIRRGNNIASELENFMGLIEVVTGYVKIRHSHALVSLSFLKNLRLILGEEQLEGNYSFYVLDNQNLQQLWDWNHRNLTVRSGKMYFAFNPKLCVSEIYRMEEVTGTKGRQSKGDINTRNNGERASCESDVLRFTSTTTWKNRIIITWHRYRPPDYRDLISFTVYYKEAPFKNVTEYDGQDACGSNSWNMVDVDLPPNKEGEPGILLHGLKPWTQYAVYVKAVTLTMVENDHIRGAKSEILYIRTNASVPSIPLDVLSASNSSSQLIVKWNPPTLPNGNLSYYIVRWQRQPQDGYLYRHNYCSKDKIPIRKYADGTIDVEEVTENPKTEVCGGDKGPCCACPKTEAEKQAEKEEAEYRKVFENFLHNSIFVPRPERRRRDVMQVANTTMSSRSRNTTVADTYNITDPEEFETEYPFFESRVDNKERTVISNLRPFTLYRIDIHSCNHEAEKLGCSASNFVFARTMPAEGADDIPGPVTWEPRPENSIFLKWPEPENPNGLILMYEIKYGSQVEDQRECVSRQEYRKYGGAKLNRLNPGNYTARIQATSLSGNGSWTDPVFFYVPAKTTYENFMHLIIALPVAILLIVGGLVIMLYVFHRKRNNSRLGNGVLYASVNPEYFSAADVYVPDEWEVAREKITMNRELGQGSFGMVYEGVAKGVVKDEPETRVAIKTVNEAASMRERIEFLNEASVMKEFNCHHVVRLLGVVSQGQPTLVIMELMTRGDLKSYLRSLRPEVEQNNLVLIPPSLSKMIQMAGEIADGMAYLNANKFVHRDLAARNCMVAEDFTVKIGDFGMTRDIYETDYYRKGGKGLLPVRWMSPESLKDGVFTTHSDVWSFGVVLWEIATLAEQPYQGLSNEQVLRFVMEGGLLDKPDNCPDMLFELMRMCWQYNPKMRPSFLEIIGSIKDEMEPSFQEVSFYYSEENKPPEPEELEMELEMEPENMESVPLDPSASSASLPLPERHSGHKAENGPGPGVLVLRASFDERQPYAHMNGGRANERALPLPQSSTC
UniProt P15208, residues 28-1372: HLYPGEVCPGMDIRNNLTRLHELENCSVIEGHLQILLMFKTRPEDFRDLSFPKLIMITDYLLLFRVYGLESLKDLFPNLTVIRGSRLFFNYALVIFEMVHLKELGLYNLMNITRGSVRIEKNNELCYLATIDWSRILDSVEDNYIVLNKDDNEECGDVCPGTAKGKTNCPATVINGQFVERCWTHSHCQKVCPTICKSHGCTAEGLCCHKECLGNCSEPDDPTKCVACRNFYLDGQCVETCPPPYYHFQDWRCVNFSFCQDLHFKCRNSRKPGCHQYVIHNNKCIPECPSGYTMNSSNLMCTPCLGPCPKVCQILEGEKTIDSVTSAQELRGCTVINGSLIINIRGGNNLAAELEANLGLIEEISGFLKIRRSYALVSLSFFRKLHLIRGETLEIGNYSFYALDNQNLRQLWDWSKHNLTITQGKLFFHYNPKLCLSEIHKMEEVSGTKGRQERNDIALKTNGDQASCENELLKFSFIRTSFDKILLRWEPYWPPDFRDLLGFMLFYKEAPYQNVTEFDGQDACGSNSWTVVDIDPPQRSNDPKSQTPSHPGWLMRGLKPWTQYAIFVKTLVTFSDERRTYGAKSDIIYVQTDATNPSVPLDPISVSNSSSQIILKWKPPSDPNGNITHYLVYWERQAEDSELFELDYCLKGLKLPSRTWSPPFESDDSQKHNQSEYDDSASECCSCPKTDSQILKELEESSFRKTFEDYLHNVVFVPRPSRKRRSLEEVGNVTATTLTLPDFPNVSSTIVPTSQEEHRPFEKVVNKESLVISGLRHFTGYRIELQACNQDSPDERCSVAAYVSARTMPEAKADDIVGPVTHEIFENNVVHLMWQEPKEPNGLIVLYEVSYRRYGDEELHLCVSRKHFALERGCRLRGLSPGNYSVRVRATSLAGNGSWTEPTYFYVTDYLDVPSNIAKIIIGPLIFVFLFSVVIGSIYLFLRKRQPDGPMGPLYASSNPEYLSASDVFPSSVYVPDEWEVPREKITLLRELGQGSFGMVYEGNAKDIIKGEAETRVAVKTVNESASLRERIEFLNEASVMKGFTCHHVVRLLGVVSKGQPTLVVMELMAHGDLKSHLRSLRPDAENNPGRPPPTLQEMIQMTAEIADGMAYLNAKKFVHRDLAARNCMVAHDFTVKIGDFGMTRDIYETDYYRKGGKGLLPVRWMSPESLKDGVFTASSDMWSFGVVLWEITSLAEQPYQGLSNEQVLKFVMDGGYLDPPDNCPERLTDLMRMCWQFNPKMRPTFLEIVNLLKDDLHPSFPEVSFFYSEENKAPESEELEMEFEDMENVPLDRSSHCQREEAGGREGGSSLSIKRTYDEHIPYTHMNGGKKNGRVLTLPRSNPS

The target of the experiment is IGF-1 receptor (IGF-1R), endogenous in NIH-3T3 cells (mouse (endogenous in NIH-3T3)) (UniProt Q60751). The experiment is described as follows: co-IP; IGF-1R immunoprecipitated (anti-IGF-1R #9750, Catch and Release kit) from 250 µg NIH-3T3 protein in non-denaturing buffer; blotted for InsR pTyr1334 and InsRβ; cells treated with vehicle or L2-Cmu (100 µg/mL), then media or IGF-1 (5 nM) for 2 min.

These are yes or no findings as the source states them, for the method shown. In cells and extracts the contact can be indirect. Some binding calls cover weakened binding; strength is not graded here.

Take “insulin receptor (InsR), endogenous in NIH-3T3 cells (from UniProt P15208 28-1372)”: the binding result is “binds”.
